Laboratory results from article PMC4868951.

How the values were obtained:
[1] = molecular target: FLAG-RagA (Drosophila); test: co-IP; Kc167 cells transfected with FLAG-RagA and FLAG-RagC (wild type or active-locked mutants) and tagged prey, anti-FLAG immunoprecipitation; with or without amino acids
[2] = molecular target: FLAG-RagC (Drosophila); test: as above

- binding [1]: binds
- binding [2]: binds
B1: tagged eIF3-S2 (protein, UniProt O02195 1-326)
chain: MRPLMLQGHERSITQIKYNREGDLLFSCSKDQKPNVWYSLNGERLGTYDGHQGAVWCLDVDWESRKLITGAGDMTAKIWDVEYGTVIASIPTKSSVRTSNFSFSGNQAAYSTDKAMGQSCELFLIDVRNADSSLSEQEPTLRIPMTESKITSMLWGPLDETIITGHDNGNIAIWDIRKGQKVVDSGTDHSAGINDMQLSKDGTMFVTASKDTTAKLFDSESLMCLKTYKTERPVNSAAISPIMDHVVLGGGQDAMEVTTTSTKAGKFDSRFFHLIYEEEFARLKGHFGPINSLAFHPDGKSYASGGEDGFVRVQTFDSTYFENIFE

These are yes or no findings as the source states them, for the method shown. In cells and extracts the contact can be indirect. Binding calls can cover weak binding; strength is not graded here. Tags and fused reporters may be left off the sequences shown.
